PubChem BioAssay AID256 (DTP/NCI, 2004)
The list is a part of this screen's results and no random one: it is rich in T/C values a quarter to a half above the control, in often repeated tests (any T/C) and in doses without a T/C. Other doses and runs of a compound stand elsewhere. T/C gives the treated animals as a percentage of the vehicle group. Some entries give survivors of the animals treated and no T/C: the source files T/C as zero there, which appears to mark a toxic dose or a test without result, not a measured value. Some survivor counts are full or nearly so, which does not show that the dose was tolerated: the source hardly ever lists a survival T/C far under the control, and the zero likely stands for such cases as well. Survivors were counted at the toxicity check, usually on the fifth day, unless a day is given; later deaths do not show. Schedule codes are those of the source, read here as Q, the interval in days (D) or hours (H), X, the number of doses. Additions like (4×) count equal records among those shown. Where survival is the endpoint, the PubChem record calls one and a half times the control and up active, and a quarter to a half above the control has no call in these data; cut-offs in other NCI protocols can differ. Some doses were run more than once; the values are given in rising order. Some T/C values carry the count of animals alive at the toxicity check (mostly the fifth day); where none is given, no animal had died by that day.

Test system: CD2F1 mice, L1210 leukemia ip, survival T/C
Assay: NCI In Vivo Anticancer Drug Screen. Data for tumor model L1210 Leukemia (intraperitoneal) in CD2F1 (CDF1) mice
Conditions: higher T/C = longer survival
Procedure, shortened: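 Activity against a transplanted murine tumor was judged by comparing the compound group with a vehicle group. The outcome in the treated animals was divided by that in the controls.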

[1] = T/C endpoint: median survival time, dose: 6.0 mg/kg/injection, schedule: Q01DX009 (ip), vehicle: saline

Nc1ncn(C2OC(CO)C(O)C2O)c(=O)n1 (stereo unspecified)
T/C (T/C endpoint: mean survival time, dose: 100.0 mg/kg/injection, schedule: Q04DX003 (ip), vehicle: saline, evaluated on day 30): 164, 175, 182 % of control | T/C (T/C endpoint: mean survival time, dose: 100.0 mg/kg/injection, schedule: Q04DX003 (ip), vehicle: saline, evaluated on day 50): 166 % of control | T/C (T/C endpoint: mean survival time, dose: 200.0 mg/kg/injection, schedule: Q01DX009 (ip), vehicle: saline, evaluated on day 30): 119, 188, 243 % of control | T/C (T/C endpoint: mean survival time, dose: 200.0 mg/kg/injection, schedule: Q01DX009 (ip), vehicle: saline, evaluated on day 50): 174 % of control | T/C (T/C endpoint: median survival time, dose: 0.37 mg/kg/injection, schedule: Q01DX009 (ip), vehicle: saline): 135 % of control | T/C (T/C endpoint: median survival time, dose: 0.63 mg/kg/injection, schedule: Q01DX009 (ip), vehicle: saline): 147 % of control | T/C (T/C endpoint: median survival time, dose: 1.56 mg/kg/injection, schedule: Q01DX009 (ip), vehicle: other): 148 % of control | T/C (T/C endpoint: median survival time, dose: 1.56 mg/kg/injection, schedule: Q01DX009 (ip), vehicle: saline): 142 % of control | T/C (T/C endpoint: median survival time, dose: 2.0 mg/kg/injection, schedule: Q01DX009 (oral), vehicle: saline): 125 % of control | T/C (T/C endpoint: median survival time, dose: 3.75 mg/kg/injection, schedule: Q04DX003 (ip), vehicle: saline): 134 % of control | T/C (T/C endpoint: median survival time, dose: 4.0 mg/kg/injection, schedule: Q01DX009 (oral), vehicle: saline): 143 % of control | T/C (T/C endpoint: median survival time, dose: 4.0 mg/kg/injection, schedule: Q04DX003 (ip), vehicle: saline): 131 % of control | survivor count (T/C endpoint: median survival time, dose: 6.0 mg/kg/injection, schedule: Q01DX009 (ip), vehicle: clinical formulation): 10 of 10 | T/C [1]: 134 % of control | survivor count [1]: 10 of 10 | T/C (T/C endpoint: median survival time, dose: 8.0 mg/kg/injection, schedule: Q01DX009 (ip), vehicle: saline): 137 % of control | survivor count (T/C endpoint: median survival time, dose: 12.0 mg/kg/injection, schedule: Q01DX009 (ip), vehicle: clinical formulation): 10 of 10 | survivor count (T/C endpoint: median survival time, dose: 12.0 mg/kg/injection, schedule: Q01DX009 (ip), vehicle: saline): 10 of 10 (2×) | T/C (T/C endpoint: median survival time, dose: 12.5 mg/kg/injection, schedule: Q01DX009 (ip), vehicle: saline, evaluated on day 30): 213 and 233 % of control | T/C (T/C endpoint: median survival time, dose: 12.5 mg/kg/injection, schedule: Q01DX009 (ip), vehicle: saline, evaluated on day 60): 215 and 220 % of control | survivor count (T/C endpoint: median survival time, dose: 16.0 mg/kg/injection, schedule: Q01DX009 (ip), vehicle: saline): 5 of 6 | T/C (T/C endpoint: median survival time, dose: 18.7 mg/kg/injection, schedule: Q04DX003 (ip), vehicle: DMSO): 145 % of control | survivor count (T/C endpoint: median survival time, dose: 24.0 mg/kg/injection, schedule: Q01DX009 (ip), vehicle: clinical formulation): 1 of 10 | survivor count (T/C endpoint: median survival time, dose: 24.0 mg/kg/injection, schedule: Q01DX009 (ip), vehicle: saline): 1 of 10 | T/C (T/C endpoint: median survival time, dose: 25.0 mg/kg/injection, schedule: Q01DX009 (ip), vehicle: saline, evaluated on day 30): 247 and 263 % of control | T/C (T/C endpoint: median survival time, dose: 25.0 mg/kg/injection, schedule: Q01DX009 (ip), vehicle: saline, evaluated on day 60): 255 and 274 % of control | survivor count (T/C endpoint: median survival time, dose: 32.0 mg/kg/injection, schedule: Q01DX005 (ip), vehicle: saline): 0 of 6 | survivor count (T/C endpoint: median survival time, dose: 32.0 mg/kg/injection, schedule: Q01DX009 (ip), vehicle: saline): 3 of 6 | T/C (T/C endpoint: median survival time, dose: 32.0 mg/kg/injection, schedule: Q04DX003 (ip), vehicle: saline): 140 % of control | T/C (T/C endpoint: median survival time, dose: 37.5 mg/kg/injection, schedule: Q03HX024 (ip), vehicle: DMSO): 134 % of control | T/C (T/C endpoint: median survival time, dose: 50.0 mg/kg/injection, schedule: Q01DX009 (ip), vehicle: saline, evaluated on day 30): 270 and 278 % of control | T/C (T/C endpoint: median survival time, dose: 50.0 mg/kg/injection, schedule: Q01DX009 (ip), vehicle: saline, evaluated on day 60): 268 and 304 % of control | T/C (T/C endpoint: median survival time, dose: 56.2 mg/kg/injection, schedule: Q01DX001 (iv), vehicle: DMSO): 136 % of control | survivor count (T/C endpoint: median survival time, dose: 64.0 mg/kg/injection, schedule: Q01DX005 (ip), vehicle: saline): 0 of 6 | T/C (T/C endpoint: median survival time, dose: 100.0 mg/kg/injection, schedule: Q01DX009 (ip), vehicle: DMSO): 148 % of control | T/C (T/C endpoint: median survival time, dose: 100.0 mg/kg/injection, schedule: Q01DX009 (ip), vehicle: saline, evaluated on day 30): 282 and 303 % of control | T/C (T/C endpoint: median survival time, dose: 100.0 mg/kg/injection, schedule: Q01DX009 (ip), vehicle: saline, evaluated on day 45): 314 and 337 % of control | T/C (T/C endpoint: median survival time, dose: 100.0 mg/kg/injection, schedule: Q01DX009 (ip), vehicle: saline, evaluated on day 60): 154 and 220 % of control | T/C (T/C endpoint: median survival time, dose: 112.0 mg/kg/injection, schedule: Q01DX001 (ip), vehicle: DMSO): 125 % of control | T/C (T/C endpoint: median survival time, dose: 112.5 mg/kg/injection, schedule: Q01DX001 (iv), vehicle: DMSO): 137 % of control | survivor count (T/C endpoint: median survival time, dose: 128.0 mg/kg/injection, schedule: Q01DX005 (ip), vehicle: saline): 0 of 6 | T/C (T/C endpoint: median survival time, dose: 150.0 mg/kg/injection, schedule: Q01DX009 (ip), vehicle: saline): 139 % of control | T/C (T/C endpoint: median survival time, dose: 200.0 mg/kg/injection, schedule: Q01DX009 (ip), vehicle: DMSO): 132 % of control | T/C (T/C endpoint: median survival time, dose: 200.0 mg/kg/injection, schedule: Q01DX009 (ip), vehicle: saline, evaluated on day 30): 301 and 375 % of control | T/C (T/C endpoint: median survival time, dose: 200.0 mg/kg/injection, schedule: Q01DX009 (ip), vehicle: saline, evaluated on day 60): 129 [9 of 10 alive] and 154 % of control | T/C (T/C endpoint: median survival time, dose: 200.0 mg/kg/injection, schedule: Q01DX009 (oral), vehicle: DMSO): 147 % of control | T/C (T/C endpoint: median survival time, dose: 225.0 mg/kg/injection, schedule: Q01DX001 (ip), vehicle: DMSO): 130 % of control | survivor count (T/C endpoint: median survival time, dose: 256.0 mg/kg/injection, schedule: Q01DX005 (ip), vehicle: saline): 0 of 6 | survivor count (T/C endpoint: median survival time, dose: 300.0 mg/kg/injection, schedule: Q03HX024 (ip), vehicle: DMSO): 10 of 10 | T/C (T/C endpoint: median survival time, dose: 360.0 mg/kg/injection, schedule: Q01DX005 (ip), vehicle: DMSO): 143 % of control | survivor count (T/C endpoint: median survival time, dose: 360.0 mg/kg/injection, schedule: Q01DX005 (iv), vehicle: DMSO): 6 of 10 | T/C (T/C endpoint: median survival time, dose: 400.0 mg/kg/injection, schedule: Q01DX009 (ip), vehicle: DMSO): 126 % of control | T/C (T/C endpoint: median survival time, dose: 450.0 mg/kg/injection, schedule: Q01DX001 (ip), vehicle: DMSO): 146 % of control | T/C (T/C endpoint: median survival time, dose: 450.0 mg/kg/injection, schedule: Q01DX001 (iv), vehicle: DMSO): 147 % of control [8 of 10 alive] | survivor count (T/C endpoint: median survival time, dose: 450.0 mg/kg/injection, schedule: Q03HX008 (ip), vehicle: DMSO): 1 of 10 | survivor count (T/C endpoint: median survival time, dose: 512.0 mg/kg/injection, schedule: Q01DX005 (ip), vehicle: saline): 0 of 6
